Article PMC6270094, “Dibenzo[1,2,5]thiadiazepines Are Non-Competitive GABAA Receptor Antagonists” (Molecules, 2013)
Where two headings read alike, the source gives them in different places.

Test system: native GABAA receptors of guinea pig myenteric neurons
Experiment: Whole-cell recordings of membrane currents induced by GABA (IGABA) in cultured myenteric neurons
Assay type: cell-based
Excerpt: Guinea pigs (100–200 g; either male or female) were sacrificed by cervical dislocation and carotid exsanguination. These methods have been approved by the Animal Care Committee of the IPICYT and are in agreement with the published Guiding Principles in the Care and Use of Animals, approved by the American Physiological Society. A segment of ~10 cm of the jejunum was removed and placed in a modified Krebs solution (in mM: NaCl, 126; NaH2PO4, 1.2; MgCl2, 1.2; CaCl2, 2.5; KCl, 5; NaH2CO3, 25; glucose, 11. The sample was gassed under 95% O2 and 5% CO2) and opened longitudinally. […]
All experiments were conducted using standard solutions with the following compositions (in mM); inside the pipette: CsCl, 160; EGTA, 10; HEPES, 5; NaCl, 10; ATPMg, 3 and GTP, 0.1; external solution: NaCl, 160; CaCl2, 2; glucose, 11; HEPES, 5 and CsCl, 3. […] The whole-cell current data were recorded on a PC using the AxoScope software (Axon Instruments, Inc.) and were analyzed using the AXOGRAPH software (Molecular Devices, CA, USA). […] A control tube was positioned ~300 μm in front of the recorded neuron, and substances were applied externally by abruptly interchanging the tube for another tube containing the control solution plus the drug(s). […]

Compound NCCCC(=O)O [GABA] has an EC50 (read-out: EC50 of GABA concentration-response curve) of 127 ± 16 µM and an EC50 (read-out: EC50 of GABA-induced inward currents (IGABA)) of 115 ± 10 µM.
